Measured values: article PMC12663635
No constants are given. Whether binding was seen depends on the method and setting. Binding seen in cells or lysates may run through a third protein. Some results given as binding are weak or reduced against the parent protein; the word gives no strength.

Chains of the proteins cited; added tags and fusions are not shown. Residues count along the entry.
UniProt P98161, residues 24-4303: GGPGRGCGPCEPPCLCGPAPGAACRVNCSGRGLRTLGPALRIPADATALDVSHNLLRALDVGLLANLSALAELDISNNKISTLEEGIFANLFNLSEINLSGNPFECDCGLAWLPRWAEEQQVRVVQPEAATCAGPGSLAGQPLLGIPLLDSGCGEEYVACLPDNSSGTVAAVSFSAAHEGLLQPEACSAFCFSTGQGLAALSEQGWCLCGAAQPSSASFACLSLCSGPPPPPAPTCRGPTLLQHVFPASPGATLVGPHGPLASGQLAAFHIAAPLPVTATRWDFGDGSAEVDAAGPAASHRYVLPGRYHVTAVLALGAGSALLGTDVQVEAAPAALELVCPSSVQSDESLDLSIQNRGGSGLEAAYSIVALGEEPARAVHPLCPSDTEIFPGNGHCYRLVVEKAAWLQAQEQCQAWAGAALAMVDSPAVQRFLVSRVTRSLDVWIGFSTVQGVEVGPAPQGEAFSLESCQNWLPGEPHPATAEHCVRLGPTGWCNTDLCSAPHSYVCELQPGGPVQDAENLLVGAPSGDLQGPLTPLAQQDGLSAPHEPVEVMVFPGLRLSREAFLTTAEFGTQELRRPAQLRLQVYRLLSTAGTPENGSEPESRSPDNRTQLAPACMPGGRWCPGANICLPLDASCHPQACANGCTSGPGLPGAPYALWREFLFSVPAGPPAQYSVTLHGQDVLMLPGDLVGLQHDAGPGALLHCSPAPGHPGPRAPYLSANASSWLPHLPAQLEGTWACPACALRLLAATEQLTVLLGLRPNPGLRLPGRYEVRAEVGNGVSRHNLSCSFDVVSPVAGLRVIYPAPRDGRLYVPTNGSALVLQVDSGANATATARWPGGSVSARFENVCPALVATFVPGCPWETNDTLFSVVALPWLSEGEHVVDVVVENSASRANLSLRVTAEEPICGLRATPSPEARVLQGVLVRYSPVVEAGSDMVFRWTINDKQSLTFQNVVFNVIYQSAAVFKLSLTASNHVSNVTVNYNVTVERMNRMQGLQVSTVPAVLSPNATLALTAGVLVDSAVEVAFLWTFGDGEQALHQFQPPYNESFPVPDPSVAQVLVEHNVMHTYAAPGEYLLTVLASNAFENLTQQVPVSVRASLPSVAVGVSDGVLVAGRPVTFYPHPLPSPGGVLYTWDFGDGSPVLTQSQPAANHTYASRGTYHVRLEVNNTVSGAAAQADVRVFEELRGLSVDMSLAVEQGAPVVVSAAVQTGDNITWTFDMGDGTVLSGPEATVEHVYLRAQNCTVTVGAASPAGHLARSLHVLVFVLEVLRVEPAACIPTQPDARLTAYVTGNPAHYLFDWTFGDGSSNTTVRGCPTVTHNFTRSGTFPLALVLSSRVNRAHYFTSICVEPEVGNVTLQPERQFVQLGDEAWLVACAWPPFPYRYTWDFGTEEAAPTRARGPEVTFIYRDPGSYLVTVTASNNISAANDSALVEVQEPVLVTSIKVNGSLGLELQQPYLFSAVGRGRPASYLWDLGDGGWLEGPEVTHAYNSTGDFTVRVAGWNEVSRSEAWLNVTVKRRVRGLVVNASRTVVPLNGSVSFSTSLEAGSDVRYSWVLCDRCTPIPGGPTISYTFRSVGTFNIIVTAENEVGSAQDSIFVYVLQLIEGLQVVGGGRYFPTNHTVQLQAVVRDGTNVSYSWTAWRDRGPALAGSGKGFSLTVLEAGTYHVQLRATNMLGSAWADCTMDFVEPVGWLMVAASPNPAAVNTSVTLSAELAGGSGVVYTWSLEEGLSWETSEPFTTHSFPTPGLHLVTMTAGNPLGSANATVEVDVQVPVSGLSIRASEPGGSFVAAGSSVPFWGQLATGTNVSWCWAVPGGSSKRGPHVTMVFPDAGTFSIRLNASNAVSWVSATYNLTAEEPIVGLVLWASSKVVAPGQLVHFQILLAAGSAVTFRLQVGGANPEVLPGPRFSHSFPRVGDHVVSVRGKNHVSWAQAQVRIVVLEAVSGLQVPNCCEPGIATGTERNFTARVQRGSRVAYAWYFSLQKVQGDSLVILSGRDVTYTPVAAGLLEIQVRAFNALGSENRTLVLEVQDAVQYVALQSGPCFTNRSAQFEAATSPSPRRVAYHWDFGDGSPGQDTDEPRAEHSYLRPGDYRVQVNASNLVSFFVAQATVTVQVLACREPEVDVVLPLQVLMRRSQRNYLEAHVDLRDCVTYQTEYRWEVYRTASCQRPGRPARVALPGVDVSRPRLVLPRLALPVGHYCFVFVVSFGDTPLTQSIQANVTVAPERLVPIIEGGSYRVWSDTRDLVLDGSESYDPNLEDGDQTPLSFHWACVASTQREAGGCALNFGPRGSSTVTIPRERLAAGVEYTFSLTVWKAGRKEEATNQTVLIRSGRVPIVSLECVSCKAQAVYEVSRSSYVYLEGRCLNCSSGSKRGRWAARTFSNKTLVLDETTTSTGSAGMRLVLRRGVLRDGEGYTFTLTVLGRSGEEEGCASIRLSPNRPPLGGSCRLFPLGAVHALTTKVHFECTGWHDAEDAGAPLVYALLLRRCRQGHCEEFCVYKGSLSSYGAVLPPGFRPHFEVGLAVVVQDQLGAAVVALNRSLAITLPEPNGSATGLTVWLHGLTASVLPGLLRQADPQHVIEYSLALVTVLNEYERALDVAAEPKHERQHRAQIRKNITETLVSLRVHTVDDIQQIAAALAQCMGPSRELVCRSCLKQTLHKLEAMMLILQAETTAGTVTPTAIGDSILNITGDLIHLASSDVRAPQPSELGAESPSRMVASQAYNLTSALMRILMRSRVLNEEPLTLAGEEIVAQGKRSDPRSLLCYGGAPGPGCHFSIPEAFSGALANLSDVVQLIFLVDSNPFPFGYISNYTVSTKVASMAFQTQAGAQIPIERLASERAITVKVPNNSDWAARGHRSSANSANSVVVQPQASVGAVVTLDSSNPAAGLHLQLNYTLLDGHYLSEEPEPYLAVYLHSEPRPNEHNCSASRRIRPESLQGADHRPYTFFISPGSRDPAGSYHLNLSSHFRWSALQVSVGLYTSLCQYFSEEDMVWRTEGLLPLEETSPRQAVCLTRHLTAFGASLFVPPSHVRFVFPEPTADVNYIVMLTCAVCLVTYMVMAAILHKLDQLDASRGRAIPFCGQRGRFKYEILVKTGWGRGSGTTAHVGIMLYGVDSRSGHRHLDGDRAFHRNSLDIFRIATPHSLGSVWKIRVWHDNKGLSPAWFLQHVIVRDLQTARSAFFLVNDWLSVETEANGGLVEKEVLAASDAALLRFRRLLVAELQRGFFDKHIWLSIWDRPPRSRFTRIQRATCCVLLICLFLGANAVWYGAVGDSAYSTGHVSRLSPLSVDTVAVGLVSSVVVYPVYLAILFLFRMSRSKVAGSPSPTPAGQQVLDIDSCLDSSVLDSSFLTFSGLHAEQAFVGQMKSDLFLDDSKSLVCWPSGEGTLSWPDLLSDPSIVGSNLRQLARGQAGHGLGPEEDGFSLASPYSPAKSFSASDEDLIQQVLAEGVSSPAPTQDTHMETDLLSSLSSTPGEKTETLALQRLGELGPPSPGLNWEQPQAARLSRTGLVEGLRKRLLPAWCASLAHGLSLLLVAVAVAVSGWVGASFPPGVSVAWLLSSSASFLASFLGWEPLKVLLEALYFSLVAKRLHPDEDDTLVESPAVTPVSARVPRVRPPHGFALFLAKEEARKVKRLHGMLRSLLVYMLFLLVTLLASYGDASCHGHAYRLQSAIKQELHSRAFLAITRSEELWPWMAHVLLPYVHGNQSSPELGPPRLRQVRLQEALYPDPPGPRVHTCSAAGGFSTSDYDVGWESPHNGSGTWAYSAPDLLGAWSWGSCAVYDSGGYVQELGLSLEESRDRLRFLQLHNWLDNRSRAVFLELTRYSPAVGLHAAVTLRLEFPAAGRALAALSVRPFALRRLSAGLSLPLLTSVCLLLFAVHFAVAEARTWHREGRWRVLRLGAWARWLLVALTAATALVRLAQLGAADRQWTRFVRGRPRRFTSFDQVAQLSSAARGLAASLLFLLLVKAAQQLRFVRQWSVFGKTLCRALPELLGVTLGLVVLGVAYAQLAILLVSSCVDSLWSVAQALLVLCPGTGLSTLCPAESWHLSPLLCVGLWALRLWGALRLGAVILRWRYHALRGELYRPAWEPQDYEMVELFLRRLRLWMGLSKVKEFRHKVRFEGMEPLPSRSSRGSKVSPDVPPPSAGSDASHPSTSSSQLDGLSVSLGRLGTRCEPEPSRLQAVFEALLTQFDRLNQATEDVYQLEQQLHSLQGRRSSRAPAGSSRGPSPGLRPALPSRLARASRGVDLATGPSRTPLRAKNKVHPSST

Target: polycystin-1 (human (endogenous in NHPTK)) (UniProt P98161)
Assay: proximity ligation; Duolink PLA in fixed NHPTK RECs with antibodies to the endogenous proteins; non-starved cells (PC1+ARL13B also in ciliated cells); PLA signal per cell

| binding | Binder |
| --- | --- |
| binds | BLOC1S1 (protein, UniProt P78537 1-153) MAPGSRGERSSFRSRRGPGVPSPQPDVTMLSRLLKEHQAKQNERKELQEKRRREAITAATCLTEALVDHLNVGVAQAYMNQRKLDHEVKTLQVQAAQFAKQTGQWIGMVENFNQALKEIGDVENWARSIELDMRTIATALEYVYKGQLQSAPS |
| binds | SNAPIN (protein, UniProt O95295 1-136) MAGAGSAAVSGAGTPVAGPTGRDLFAEGLLEFLRPAVQQLDSHVHAVRESQVELREQIDNLATELCRINEDQKVALDLDPYVKKLLNARRRVVLVNNILQNAQERLRRLNHSVAKETARRRAMLDSGIYPPGSPGK |
